Experimental data from patent US7579376B2, “Geranyl compounds” (Ohgen Research Laboratories, Ltd., priority 2002, dated 2009).

The compounds below were run on HuH-7 cells (dendriform cell strain of human hepatoma) (assay: Measurement of antitumor effect: HuH-7 carcinoma pieces hypodermically implanted in nude mice, carcinomas weighed after administration). Settings: overall grade of antitumor effect and toxicity against host mice.
Type: in vivo
Set-up: key: −: weak antitumor effect and very strong toxicity against host mice; +/−: weak antitumor effect recognizable and toxicity against host mice also observable; +: a fixed level of antitumor effect observable but toxicity against host mice also strong; ++: strong antitumor effect observed and toxicity against host mice week; +++: strong antitumor effect observed and no toxicity against host mice
Procedure: Measurement of Antitumor Effect
Carcinoma of HuH-7 cells (dendriform cell strain of human hepatoma) hypodermically implanted or subimplanted in the backs of 5-weeks old female nude mice (BALB/c, Ninox) was aseptically taken out and crushed into 5×5 mm sized pieces in a phosphate buffer solution (PBS), a piece of which then being hypodermically implanted in the backs of the nude mice.
Each test substance was dissolved in corn oil, and the solution was intraperitoneally administered to the nude mice consecutively once per day at a rate of 250 μg/mouse for 3 weeks, starting from a week after the implantation. After termination of the administration, the carcinomas were taken out and weighed to calculate the antitumor effect and the mice' weight loss by the following equations. For the test six mice per group were used, and the group administered with the solvent (corn oil) alone was made the control group:
Evaluations of antitumor effect and weight loss were conducted according to the following standard, where the control group values were held to be 100%.
• −: >100%, +/−: 100˜75%, +: 75˜50%, ++: 50˜25%, +++: 25˜0% Weight Loss • −: >110%, +/−: 110˜100%, +: 100˜95%, ++: 95˜90%, +++: <90% Death Rate (Death Rate During the Test Period) • −: none • +/−: death occurred with high concentration administration (500 μg/mouse) • +: 1-3 mice dead • ++: 3-5 mice dead • +++: all 6 mice dead Synthetic Evaluation • −: weak antitumor effect and very strong toxicity against host mice • +/−: weak antitumor effect recognizable and toxicity against host mice also observable • +: a fixed level of antitumor effect observable but toxicity against host mice also strong • ++: strong antitumor effect observed and toxicity against host mice week • +++: strong antitumor effect observed and no toxicity against host mice

Row | SMILES | Synthetic Evaluation
1 | CC(C)=CCC/C(C)=C/CNC(=O)CC(O)C(=O)NC/C=C(\C)CCC=C(C)C (stereo not drawn) [N,N′-digeranylmalic diamide, N,N′-digeranylmalic Diamide] | ++
2 | CC(C)=CCC/C(C)=C/CNC(=O)[C@@H](N)Cc1ccc(O)cc1 [Tyrosine geranylamide, Tyrosine Geranylamide] | +
3 | CC(=O)N[C@@H](Cc1ccc(O)cc1)C(=O)NC/C=C(\C)CCC=C(C)C [N-acetyltyrosine geranylamide, N-acetyltyrosine Geranylamide] | +
4 | CC(C)=CCC/C(C)=C/C(=O)NC1C(O)OC(CO)C(O)C1O (stereo not drawn) | +++
5 | CC(C)=CCC/C(C)=C/C(=O)NC1C(O)OC(C)C(O)C1O (stereo not drawn) [N-fucosegeranamide] | +++
6 | CC(C)=CCC/C(C)=C/CNC(=O)/C=C/C(=O)NC/C=C(\C)CCC=C(C)C [N,N′-digeranylfumaric diamide, N,N′-digeranylfumaric Diamide] | ++
7 | CC(O)(CCO)CC(=O)NC1C(O)OC(CO)C(O)C1O (stereo not drawn) | +++
8 | CC(=O)C(=O)Nc1ccc(C(=O)NC/C=C(\C)CCC=C(C)C)cc1 [N-geranyl-4-pyruvoaminobenzamide, N-geranyl-p-pyruvoaminobenzamide] | +++
9 | CC(C)=CCC/C(C)=C/C(=O)N[C@@H](Cc1ccc(O)cc1)C(=O)O [N-geranoyltyrosine] | ++
